Here are results for 2 molecules from paper PMC3081313, “Factors Defining the Functional Oligomeric State of Escherichia coli DegP Protease” (PLoS ONE, 2011).

The target of assay [1] is T1, proteolytically inactive DegP_(S210A) (Escherichia coli, UniProt P0C0V0 27-474, S210A).
T1 construct: Escherichia coli DegP (HtrA, protease Do), periplasmic protease and chaperone, with the active-site change S210A; Number of copies depends on the sample: hexamer alone, 12-mer or 24-mer with substrate; also called HtrA_(S210A); DegP6
T1 sequence (looked up): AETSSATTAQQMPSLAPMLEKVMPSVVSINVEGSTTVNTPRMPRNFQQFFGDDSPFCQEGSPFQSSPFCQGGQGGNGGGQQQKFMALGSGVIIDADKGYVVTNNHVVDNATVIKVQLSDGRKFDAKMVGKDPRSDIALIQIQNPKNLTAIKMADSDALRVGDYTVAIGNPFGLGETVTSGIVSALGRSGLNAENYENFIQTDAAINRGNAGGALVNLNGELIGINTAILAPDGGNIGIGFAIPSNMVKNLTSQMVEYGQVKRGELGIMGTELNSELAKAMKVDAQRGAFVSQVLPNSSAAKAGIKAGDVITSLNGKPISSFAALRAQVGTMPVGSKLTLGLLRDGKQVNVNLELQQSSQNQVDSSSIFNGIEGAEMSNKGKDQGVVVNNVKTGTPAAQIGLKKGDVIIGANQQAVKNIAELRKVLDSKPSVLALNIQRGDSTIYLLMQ
The assay can be described thus: SEC; DegP_(S210A) mixed with full-length MDH, 37°C 10 min; Superdex 200 in 50 mM HEPES pH 7.3, 150 mM NaCl at 4°C; both purified.

Assay [2] concerns the target T1, proteolytically inactive DegP_(S210A). The assay can be described thus: SEC; DegP_(S210A) (42 µM) mixed with full-length β-casein (42 µM; also in molar excess), 37°C 10 min in 50 mM HEPES pH 7.3; Superdex 200 in 50 mM HEPES pH 7.3, 150 mM NaCl at 4°C; peak fractions on SDS-PAGE; both purified.

Results are given in words; binding and its absence hold for the method and conditions named. Some results given as binding are weak or reduced against the parent protein; the word gives no strength.

B1: full-length malate dehydrogenase (MDH) (enzyme, UniProt P00346 25-338)
chain: AKVAVLGASGGIGQPLSLLLKNSPLVSRLTLYDIAHTPGVAADLSHIETRATVKGYLGPEQLPDCLKGCDVVVIPAGVPRKPGMTRDDLFNTNATIVATLTAACAQHCPDAMICIISNPVNSTIPITAEVFKKHGVYNPNKIFGVTTLDIVRANAFVAELKGLDPARVSVPVIGGHAGKTIIPLISQCTPKVDFPQDQLSTLTGRIQEAGTEVVKAKAGAGSATLSMAYAGARFVFSLVDAMNGKEGVVECSFVKSQETDCPYFSTPLLLGKKGIEKNLGIGKISPFEEKMIAEAIPELKASIKKGEEFVKNMK
Take B1: the binding entry in assay [1] was “binds weakly”.

B2: full-length β-casein (protein, UniProt P02666 16-224)
chain: RELEELNVPGEIVESLSSSEESITRINKKIEKFQSEEQQQTEDELQDKIHPFAQTQSLVYPFPGPIPNSLPQNIPPLTQTPVVVPPFLQPEVMGVSKVKEAMAPKHKEMPFPKYPVEPFTESQSLTLTDVENLHLPLPLLQSWMHQPHQPLPPTVMFPPQSVLSLSQSKVLPVPQKAVPYPQRDMPIQAFLLYQEPVLGPVRGPFPIIV
Turning to B2, the binding entry in assay [2] is “binds”.
